Values quoted from earlier work in patent US20120095060A1, “METHODS AND COMPOSITIONS OF MITOGEN-ACTIVATED PROTEIN KINASE (MAPK) PATHWAY INHIBITORS FOR TREATING PULMONARY FIBROSIS” (priority 2010, published 2012).
At least one structure is not confirmed: it was looked up by name or label, or the drawing left a doubt.

System: ERK1/2
Conditions: previously shown; cited from earlier work

In the case of `CO[C@H]1C[C@@H]2CC[C@@H](C)[C@@](O)(O2)C(=O)C(=O)N2CCCC[C@H]2C(=O)O[C@H]([C@H](C)C[C@@H]2CC[C@@H](O)[C@H](OC)C2)CC(=O)[C@H](C)/C=C(\C)[C@@H](O)[C@@H](OC)C(=O)[C@H](C)C[C@H](C)/C=C/C=C/C=C/1C` [rapamycin], the “phosphorylation of ERK1/2 in treated TGF-α mice” value is listed as “remain phosphorylated”.
